{"source": "patent US20260115250A1", "about": "“METHODS OF TREATING AGE-RELATED MACULAR DEGENERATION” (Character Biosciences, Inc., priority 2022, published 2026)", "target": "Low Density Lipoprotein Receptor (LDLR), recombinant (UniProt P01130)", "assay": "SPR, LDLR immobilized on CM5 chip, 1 µM peptide with or without 25 µM DMPC", "note": "Results are given in words; binding and its absence hold for the method and conditions named. Some binding calls cover weakened binding; strength is not graded here."}
{"binder": "EELRVRLASHLRKLRKRLLRDADDLQKRLAVYQA", "note": "[T-007]", "values": [{"measurement": "binding", "result": "binds"}]}
{"binder": "EELRVRLASHLRKLRKRLLRDADDLQKRLAVYQAGAREGAERGLSAIRER", "note": "[T-009]", "values": [{"measurement": "binding", "result": "binds"}]}
{"binder": "T-013 (peptide) peptide: TRARLSKELQAAQARLGADMEDVRGRLVQYRGEVQAMLGQSTEELRVRLASHLRKLRKRLLRDADDLQKRLAVYQA", "values": [{"measurement": "binding", "result": "binds"}]}
{"binder": "HLRKLRKRLLRPPEQAQQIRLQAEAFQARLKSWFE", "note": "[T-018]", "values": [{"measurement": "binding", "result": "binds"}]}
{"binder": "HLRKLRKRLLRDGDKLCDRLAEYCARAKEAFDR", "note": "[T-029]", "values": [{"measurement": "binding", "result": "binds"}]}
